Some results were stated once for a whole list of compounds, not compound by compound. Bridge positions count the residues as written; N and C are the ends. Square brackets hold non-standard residues; d marks the D form. Peptide text beside a SMILES is read from it. Nle = CCCC[C@H](N)C(=O)O
Target: T1, human Kv1.3 voltage-gated K+ channel (Homo sapiens, UniProt P22001)
T1 construct: host or cells: CHO-DUKX
Assay type: cell-based

Sequences of proteins named here, by UniProt entry; tags and fusion partners are left off.
UniProt P22001, whole entry: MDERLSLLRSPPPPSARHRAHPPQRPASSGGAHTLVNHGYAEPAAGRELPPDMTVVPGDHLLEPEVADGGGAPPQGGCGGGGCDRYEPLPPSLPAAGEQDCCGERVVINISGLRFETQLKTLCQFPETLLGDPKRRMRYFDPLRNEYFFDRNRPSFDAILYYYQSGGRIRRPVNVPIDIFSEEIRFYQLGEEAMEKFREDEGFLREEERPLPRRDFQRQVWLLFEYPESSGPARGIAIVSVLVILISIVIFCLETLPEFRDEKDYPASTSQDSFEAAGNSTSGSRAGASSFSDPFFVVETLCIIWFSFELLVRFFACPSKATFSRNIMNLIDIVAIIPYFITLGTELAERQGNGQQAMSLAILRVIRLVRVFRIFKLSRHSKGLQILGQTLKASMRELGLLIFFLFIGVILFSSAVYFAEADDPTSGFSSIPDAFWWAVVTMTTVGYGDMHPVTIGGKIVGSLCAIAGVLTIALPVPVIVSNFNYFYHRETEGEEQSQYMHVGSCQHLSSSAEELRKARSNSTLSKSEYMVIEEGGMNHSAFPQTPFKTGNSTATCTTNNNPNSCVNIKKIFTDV

`CC[C@H](C)[C@@H]1NC(=O)[C@H](C)NC(=O)[C@H](CCCCN)NC(=O)[C@H](CC(C)C)NC(=O)[C@@H]2CSSC[C@@H](C(=O)N[C@@H](Cc3ccc(O)cc3)C(=O)N3CCC[C@H]3C(=O)N[C@@H](CCCNC(=N)N)C(N)=O)NC(=O)[C@H](CCCCN)NC(=O)[C@@H]3CSSC[C@H](NC(=O)[C@H](CCC(=O)O)NC(=O)[C@H](C(C)C)NC(=O)[C@H](CO)NC(=O)[C@H](C)NC(=O)[C@H](CO)NC(=O)[C@@H](NC(=O)[C@H](CCCNC(=N)N)NC(=O)[C@H](CCSC)NC(=O)[C@H](CC(=O)O)NC(=O)[C@H](CCSC)NC(=O)[C@@H](N)CC(N)=O)CSSC[C@H](NC(=O)[C@H](CCCCN)NC(=O)CNC(=O)[C@H](Cc4ccccc4)NC(=O)[C@H]([C@@H](C)CC)NC(=O)[C@H](CO)NC(=O)CNC1=O)C(=O)N[C@@H](CCSC)C(=O)N[C@@H](CC(N)=O)C(=O)N[C@@H](CCCCN)C(=O)N[C@@H](CCCCN)C(=O)N3)C(=O)N[C@@H](CCCCN)C(=O)N[C@@H](CCC(N)=O)C(=O)N[C@@H](CC(C)C)C(=O)N2` [Compound 18] (H-NMDMRCSASVECKQLCLKAIGSIFGKCMNKKCKCYPR-NH2; disulfide 6-27, 12-32, 16-34) was tested. Which IC50 did it give?
The IC50 was no more than 0.3 nM.

`CC[C@H](C)[C@@H]1NC(=O)[C@H](C)NC(=O)[C@H](CCCCN)NC(=O)[C@H](CC(C)C)NC(=O)[C@@H]2CSSC[C@@H](C(=O)N[C@@H](Cc3ccc(O)cc3)C(=O)N3CCC[C@H]3C(=O)N[C@@H](CCCNC(=N)N)C(N)=O)NC(=O)[C@H](CCCCN)NC(=O)[C@@H]3CSSC[C@H](NC(=O)[C@H](CCC(=O)O)NC(=O)[C@H](C(C)C)NC(=O)[C@H](CO)NC(=O)[C@H](C)NC(=O)[C@H](CO)NC(=O)[C@@H](NC(=O)[C@H](CCCNC(=N)N)NC(=O)[C@H](CCSC)NC(=O)[C@H](CC(=O)O)NC(=O)[C@H](CCSC)NC(=O)[C@@H](N)CC(N)=O)CSSC[C@H](NC(=O)[C@H](CCCCN)NC(=O)CNC(=O)[C@H](Cc4ccccc4)NC(=O)[C@H]([C@@H](C)CC)NC(=O)[C@H](CO)NC(=O)CNC1=O)C(=O)N[C@@H](CCSC)C(=O)N[C@@H](CC(N)=O)C(=O)N[C@@H](CCCCN)C(=O)N[C@@H](CCCCN)C(=O)N3)C(=O)N[C@@H](C)C(=O)N[C@@H](CCC(N)=O)C(=O)N[C@@H](CCCCN)C(=O)N2` [Compound 30] (H-NMDMRCSASVECAQKCLKAIGSIFGKCMNKKCKCYPR-NH2; disulfide 6-27, 12-32, 16-34) was tested. Which IC50 did it give?
The IC50 was no more than 0.15 nM.

How did the IC50 turn out when `CC[C@H](C)[C@@H]1NC(=O)[C@H](C)NC(=O)[C@H](CCCCN)NC(=O)[C@H](CC(C)C)NC(=O)[C@@H]2CSSC[C@@H](C(=O)N[C@@H](Cc3ccc(O)cc3)C(=O)N3CCC[C@H]3C(=O)N[C@@H](CCCNC(=N)N)C(N)=O)NC(=O)[C@H](CCCCN)NC(=O)[C@@H]3CSSC[C@H](NC(=O)[C@H](CCC(=O)O)NC(=O)[C@H](C(C)C)NC(=O)[C@H](CO)NC(=O)[C@H](C)NC(=O)[C@H](CO)NC(=O)[C@@H](NC(=O)[C@H](CCCNC(=N)N)NC(=O)[C@H](CCSC)NC(=O)[C@H](CC(=O)O)NC(=O)[C@H](CCSC)NC(=O)[C@@H](N)CC(N)=O)CSSC[C@H](NC(=O)[C@H](CCCCN)NC(=O)CNC(=O)[C@H](Cc4ccccc4)NC(=O)[C@H]([C@@H](C)CC)NC(=O)[C@H](CO)NC(=O)CNC1=O)C(=O)N[C@@H](CCSC)C(=O)N[C@@H](CC(N)=O)C(=O)N[C@@H](CCCCN)C(=O)N[C@@H](CCCCN)C(=O)N3)C(=O)N[C@@H](CCCCN)C(=O)N[C@@H](CC(C)C)C(=O)N[C@@H](CCCCN)C(=O)N2` [Compound 32] (H-NMDMRCSASVECKLKCLKAIGSIFGKCMNKKCKCYPR-NH2; disulfide 6-27, 12-32, 16-34) was run?
The IC50 was no more than 0.15 nM.

With `CC[C@H](C)[C@@H]1NC(=O)[C@H](C)NC(=O)[C@H](CCCCN)NC(=O)[C@H](CC(C)C)NC(=O)[C@@H]2CSSC[C@@H](C(=O)N[C@@H](Cc3ccc(O)cc3)C(=O)N3CCC[C@H]3C(=O)N[C@@H](CCCNC(=N)N)C(N)=O)NC(=O)[C@H](CCCCN)NC(=O)[C@@H]3CSSC[C@H](NC(=O)[C@H](CCC(=O)O)NC(=O)[C@H](C(C)C)NC(=O)[C@H](CO)NC(=O)[C@H](C)NC(=O)[C@H](CO)NC(=O)[C@@H](NC(=O)[C@H](CCCNC(=N)N)NC(=O)[C@H](CCSC)NC(=O)[C@H](CC(=O)O)NC(=O)[C@H](CCSC)NC(=O)[C@@H](N)CC(N)=O)CSSC[C@H](NC(=O)[C@H](CCCCN)NC(=O)CNC(=O)[C@H](Cc4ccccc4)NC(=O)[C@H]([C@@H](C)CC)NC(=O)[C@H](CO)NC(=O)[C@H](Cc4c[nH]cn4)NC1=O)C(=O)N[C@@H](CCSC)C(=O)N[C@@H](CC(N)=O)C(=O)N[C@@H](CCCCN)C(=O)N[C@@H](CCCCN)C(=O)N3)C(=O)N[C@@H](CCCCN)C(=O)N[C@@H](CCC(N)=O)C(=O)N[C@@H](CCCCN)C(=O)N2` [Compound 33] (H-NMDMRCSASVECKQKCLKAIHSIFGKCMNKKCKCYPR-NH2; disulfide 6-27, 12-32, 16-34) as the compound, how does the IC50 read?
The IC50 was no more than 0.15 nM.

`CC[C@H](C)[C@@H]1NC(=O)[C@H](C)NC(=O)[C@H](CCCCN)NC(=O)[C@H](CC(C)C)NC(=O)[C@@H]2CSSC[C@@H](C(=O)N[C@@H](Cc3ccc(O)cc3)C(=O)N3CCC[C@H]3C(=O)N[C@@H](CCCNC(=N)N)C(N)=O)NC(=O)[C@H](Cc3c[nH]cn3)NC(=O)[C@@H]3CSSC[C@H](NC(=O)[C@H](CCC(=O)O)NC(=O)[C@H](C(C)C)NC(=O)[C@H](CO)NC(=O)[C@H](C)NC(=O)[C@H](CO)NC(=O)[C@@H](NC(=O)[C@H](CCCNC(=N)N)NC(=O)[C@H](CCSC)NC(=O)[C@H](CC(=O)O)NC(=O)[C@H](CCSC)NC(=O)[C@@H](N)CC(N)=O)CSSC[C@H](NC(=O)[C@H](CCCCN)NC(=O)CNC(=O)[C@H](Cc4ccccc4)NC(=O)[C@H]([C@@H](C)CC)NC(=O)[C@H](CO)NC(=O)CNC1=O)C(=O)N[C@@H](CCSC)C(=O)N[C@@H](CC(N)=O)C(=O)N[C@@H](CCCCN)C(=O)N[C@@H](CCCCN)C(=O)N3)C(=O)N[C@@H](CCCCN)C(=O)N[C@@H](CCC(N)=O)C(=O)N[C@@H](CCCCN)C(=O)N2` [Compound 37] (H-NMDMRCSASVECKQKCLKAIGSIFGKCMNKKCHCYPR-NH2; disulfide 6-27, 12-32, 16-34) was tested. Which IC50 did it give?
Its IC50 is no more than 0.15 nM.

Which IC50 does the source give for `CC[C@H](C)[C@@H]1NC(=O)[C@H](C)NC(=O)[C@H](CCCCN)NC(=O)[C@H](CC(C)C)NC(=O)[C@@H]2CSSC[C@@H](C(=O)N[C@@H](Cc3ccc(O)cc3)C(=O)N3CCC[C@H]3C(=O)N[C@@H](CCCNC(=N)N)C(N)=O)NC(=O)[C@H](C(C)C)NC(=O)[C@@H]3CSSC[C@H](NC(=O)[C@H](CCC(=O)O)NC(=O)[C@H](C(C)C)NC(=O)[C@H](CO)NC(=O)[C@H](C)NC(=O)[C@H](CO)NC(=O)[C@@H](NC(=O)[C@H](CCCNC(=N)N)NC(=O)[C@H](CCSC)NC(=O)[C@H](CC(=O)O)NC(=O)[C@H](CCSC)NC(=O)[C@@H](N)CC(N)=O)CSSC[C@H](NC(=O)[C@H](CCCCN)NC(=O)CNC(=O)[C@H](Cc4ccccc4)NC(=O)[C@H]([C@@H](C)CC)NC(=O)[C@H](CO)NC(=O)CNC1=O)C(=O)N[C@@H](CCSC)C(=O)N[C@@H](CC(N)=O)C(=O)N[C@@H](CCCCN)C(=O)N[C@@H](CCCCN)C(=O)N3)C(=O)N[C@@H](CCCCN)C(=O)N[C@@H](CCC(N)=O)C(=O)N[C@@H](CCCCN)C(=O)N2` [Compound 38] (H-NMDMRCSASVECKQKCLKAIGSIFGKCMNKKCVCYPR-NH2; disulfide 6-27, 12-32, 16-34) here?
The IC50 was no more than 0.3 nM.

For `CCCC[C@H](NC(=O)[C@H](CC(=O)O)NC(=O)[C@H](CCCC)NC(=O)[C@@H](N)CC(N)=O)C(=O)N[C@@H](CCCNC(=N)N)C(=O)N[C@H]1CSSC[C@@H]2NC(=O)[C@H](CCCCN)NC(=O)CNC(=O)[C@H](Cc3ccccc3)NC(=O)[C@H]([C@@H](C)CC)NC(=O)[C@H](CO)NC(=O)CNC(=O)[C@H]([C@@H](C)CC)NC(=O)[C@H](C)NC(=O)[C@H](CCCCN)NC(=O)[C@H](CC(C)C)NC(=O)[C@@H]3CSSC[C@@H](C(=O)N[C@@H](Cc4ccc(O)cc4)C(=O)N4CCC[C@H]4C(=O)N[C@@H](CCCNC(=N)N)C(N)=O)NC(=O)[C@H](CCCCN)NC(=O)[C@H](CSSC[C@H](NC(=O)[C@H](CCC(=O)O)NC(=O)[C@H](C(C)C)NC(=O)[C@H](CO)NC(=O)[C@H](C)NC(=O)[C@H](CO)NC1=O)C(=O)N[C@@H](CCCCN)C(=O)N[C@@H](CCC(N)=O)C(=O)N[C@@H](CCCCN)C(=O)N3)NC(=O)[C@H](CCCCN)NC(=O)[C@H](CCCCN)NC(=O)[C@H](CC(N)=O)NC(=O)[C@H](CCSC)NC2=O` [Compound 39] (H-N[Nle]D[Nle]RCSASVECKQKCLKAIGSIFGKCMNKKCKCYPR-NH2; disulfide 6-27, 12-32, 16-34), which IC50 is on record?
Its IC50 is no more than 0.15 nM.

Which IC50 does the source give for `CCCC[C@H](NC(=O)[C@@H]1CCCN1)C(=O)N[C@@H](CC(=O)O)C(=O)N[C@@H](CCCC)C(=O)N[C@@H](CCCNC(=N)N)C(=O)N[C@H]1CSSC[C@@H]2NC(=O)[C@H](CCCCN)NC(=O)CNC(=O)[C@H](Cc3ccccc3)NC(=O)[C@H]([C@@H](C)CC)NC(=O)[C@H](CO)NC(=O)CNC(=O)[C@H]([C@@H](C)CC)NC(=O)[C@H](C)NC(=O)[C@H](CCCCN)NC(=O)[C@H](CC(C)C)NC(=O)[C@@H]3CSSC[C@@H](C(=O)N[C@@H](Cc4ccc(O)cc4)C(=O)N4CCC[C@H]4C(=O)N[C@@H](CCCNC(=N)N)C(N)=O)NC(=O)[C@H](CCCCN)NC(=O)[C@H](CSSC[C@H](NC(=O)[C@H](CCC(=O)O)NC(=O)[C@H](C(C)C)NC(=O)[C@H](CO)NC(=O)[C@H](C)NC(=O)[C@H](CO)NC1=O)C(=O)N[C@@H](CCCCN)C(=O)N[C@@H](CCC(N)=O)C(=O)N[C@@H](CCCCN)C(=O)N3)NC(=O)[C@H](CCCCN)NC(=O)[C@H](CCCCN)NC(=O)[C@H](CC(N)=O)NC(=O)[C@H](CCCC)NC2=O` [Compound 41] (H-P[Nle]D[Nle]RCSASVECKQKCLKAIGSIFGKC[Nle]NKKCKCYPR-NH2; disulfide 6-27, 12-32, 16-34) here?
Its IC50 is no more than 0.15 nM.

Source: patent US11780893B2, “Kv1.3 blockers” (Zealand Pharma A/S, priority 2019, dated 2023)
